This note sets out measurements from PubChem BioAssay AID2685 (National Center for Advancing Translational Sciences (NCATS), 2010).

This experiment in a line: qHTS Assay for Lipid Storage Modulators in Drosophila S3 Cells.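 On cell number change: cells counted by Cell Tracker Red CMTPX staining in the red channel.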 The conditions noted are these: BODIPY lipid droplet fluorescence, 18-24 h; for cell number change: measured here: cell count max response, cells fed with added oleic acid. The method, boiled down: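 Drosophila S3 cells got compounds at several concentrations plus oleic acid (400 uM solution). Laser-scanning cytometry with 488 nm excitation read lipid droplets at 500-530 nm and cells at 575-640 nm. Percent activity was relative to 20 uM Triacsin C.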
Background: Quantitative high-throughput screening tests each substance at several concentrations.

The mark [1] stands for this setting: measured here: lipid fluorescence (Fed channel) AC50, cells fed with added oleic acid.
[2] abbreviates: measured here: cell number channel AC50, cells fed with added oleic acid.

The list shows a part of the results. These are further read-outs of the screen, such as a control signal, another cell line or another target. No call is given for them. Compounds called inactive in the main read-out are mostly missing here. Words in brackets tell the shape of the fitted curve; partial curves, single points and poor fits give uncertain potencies.

Turning to `CC1(C)CC[C@]2(C(=O)O)CC[C@]3(C)C(=CC[C@@H]4[C@@]5(C)CC[C@H](O)C(C)(C)[C@@H]5CC[C@]43C)[C@@H]2C1`, the cell number change came out at 0.982%. Under setting [1], the AC50 is 4.11 µM [falling, single point].

Take `CN1CCN(C(=O)c2ccc(C(F)(F)F)cc2)CC1`: the cell number change was -42.8%. The AC50 under setting [2] is 35.5 µM [falling, single point].

Take `CCc1cc2cc(C)cc(C)c2nc1SCC(=O)N1CCCC1`: the cell number change was 29.7%. For the same compound, under setting [1], the AC50 was 2.06 µM [rising, partial curve, poor fit].

As for `COc1ccc(CN(C)C(=O)c2ccc3c(=O)n4c(nc3c2)CCC4)cc1`, the cell number change is -16.2%. Also, under setting [1], the AC50 was 6.51 µM [rising, single point].

Regarding `CN(C)NC(=S)Nc1ccc(S(=O)(=O)N2CCCCC2)cc1`, the AC50 is, setting by setting: under setting [2], 4.11 µM [falling, single point]; under setting [1], 6.51 µM [falling, single point].

In the case of `COc1ccc(N2CCN(C(=O)COC(=O)/C=C/c3ccc(C(F)(F)F)cc3)CC2)cc1`, the cell number change is -85.5%.

Take `C/C(CC(=O)Nc1cccc2c1CCCC2)=N\NC(=O)COc1ccccc1`: the cell number change is -13.1%. Further, the AC50 under setting [2] is 0.092 µM [rising, full curve, poor fit].

For the compound `CCOc1ccc(S(=O)(=O)Nc2ccc(F)cc2)c(C)c1C`, the cell number change was -132%. For the same compound, the concentration at half-maximal activity (AC50) under setting [2] was 3.66 µM [rising, partial curve].

`Cc1cccc(NC(=S)NC(=O)c2cc(-c3ccccc3)nc3ccccc23)c1`: the cell number change was 19.2%. In addition, the AC50 under setting [1] was 1.84 µM [rising, partial curve].

As for `O=C1NC[C@@H](Cc2cccc3ccccc23)N(CCC23CC4CC(CC(C4)C2)C3)C1=O`, the cell number change worked out at 22.1%. Besides, the half-maximal activity concentration (AC50) under setting [1] was 32.6 µM [falling, single point].

In the case of `COc1ccc(N2CCN(C(=O)CCCn3c(=O)[nH]c4ccsc4c3=O)CC2)cc1`, the cell number change is -0.368%. Moreover, under setting [1], the AC50 is 6.51 µM [falling, single point].

`Cc1cc(S(=O)(=O)N2CCC(NC(=O)C34CC5CC(CC(C5)C3)C4)CC2)ccc1-n1cnnn1`: the cell number change is -19.4%.

For `Cc1ccc(C(=O)/C=C/c2ccc(-c3ccccc3[N+](=O)[O-])o2)cc1`, the cell number change turned out to be 77.3%. Also, the AC50 under setting [2] is 18.4 µM [rising, single point].

Take `COc1ccc(S(=O)(=O)N(CC(=O)NCc2cccnc2)c2ccc(C)cc2)cc1OC`: the cell number change is -15.4%. Besides, the AC50 under setting [1] is 0.116 µM [rising, single point].

`CC(CC(=O)Nc1ccncc1)c1ccccc1` (stereo not drawn): the cell number change is -1.75%.

For `O=C(COC(=O)C1c2ccccc2Oc2ccccc21)Nc1ccc2c(c1)OCO2`, the cell number change amounted to 17.6%. Moreover, under setting [1], the AC50 was 0.58 µM [falling, single point].

Turning to `Cc1ccc2nc(Nc3ccc4[nH]c(=O)[nH]c4c3)c(-n3nc(C)cc3C)nc2c1`, the cell number change was -161%. Also, the AC50 under setting [1] is 0.259 µM [rising, full curve].

On to `COc1cccc(/C=N/NC(=O)CC2C(=O)NN=C2C)c1O` (stereo not drawn), for which the cell number change was determined as 14.6%. Also, under setting [1], the AC50 was 3.66 µM [falling, full curve].

Take `O=C(O)/C=C/c1ccc2c(-c3ccccc3)onc2c1`: the cell number change is -18.4%. In addition, under setting [1], the AC50 was 2.31 µM [rising, partial curve, poor fit].

`CSc1oc(-c2ccco2)nc1S(=O)(=O)c1ccc(Br)cc1`: the AC50 reads like this: under setting [2], 2.06 µM [rising, partial curve]; under setting [1], 6.51 µM [rising, single point].

In the case of `CC(C)C(NC(=O)COc1ccc2ccccc2c1)C(=O)N/N=C/C=C/c1ccccc1` (stereo not drawn), the cell number change turned out to be 97.2%. In addition, the AC50 under setting [2] was 4.61 µM [rising, full curve]. Besides, the AC50 under setting [1] was 6.51 µM [rising, partial curve].

For `O=C1CCCN1CCCNc1ncnc2c1[nH]c1ccccc12`, the cell number change was -12.7%. Under setting [1], the AC50 is 7.31 µM [rising, partial curve].

As to `CC(=O)Nc1sc2c(c1CN1CCN(c3ccccn3)CC1)CCCC2`, the cell number change worked out at 1.67%. In addition, the AC50 under setting [1] is 0.366 µM [rising, partial curve, poor fit].

As to `COc1cccc(C(=O)Nc2cc(NC(=O)c3ccco3)ccc2OC)c1`, the AC50 under setting [1] is 3.26 µM [rising, partial curve].

As for `Cc1ccc(OCCNC(=O)CNC(=O)c2ccc3c(c2)OCO3)cc1`, the cell number change was determined as 14.4%. Also, under setting [1], the AC50 was 11.6 µM [rising, partial curve].

In the case of `NC(=O)CCSC(=S)N1CCOCC1`, the cell number change was -7.52%. The AC50 under setting [2] was 0.58 µM [falling, single point]. Moreover, under setting [1], the AC50 was 5.17 µM [falling, single point].

With `Cc1nn(CCCC(=O)Nc2cnn(Cc3ccc(F)cc3)c2)c(C)c1[N+](=O)[O-]`, under setting [1], the AC50 is 4.11 µM [falling, single point].

With `CCOc1ccc(-c2nnn(CCC(=O)O)n2)cc1OC`, the cell number change was -110%. In addition, the AC50 under setting [2] is 29.1 µM [falling, single point]. Under setting [1], the AC50 is 29.1 µM [falling, partial curve].

On to `Cc1cc(C)cc(N(C)S(=O)(=O)c2nnc(NC(=O)C(C)C)s2)c1`, for which the cell number change was -24.8%. The AC50 under setting [1] was 0.00461 µM [falling, full curve, poor fit].

As to `Cc1cccc(C(=O)Oc2cc(C)[nH]c(=O)c2[N+](=O)[O-])c1`, the cell number change worked out at 5.9%. Further, the AC50 under setting [1] was 29.1 µM [rising, single point].

Consider `O=C(O)CCCC(=O)Nc1ccccc1C(=O)N1CCOCC1`, for which the cell number change is -48.4%. Further, under setting [2], the AC50 was 29.1 µM [falling, single point]. The AC50 under setting [1] is 29.1 µM [falling, single point].

Regarding `N=C(N)c1ccc(Cl)cc1`, the cell number change worked out at 8.42%. Moreover, under setting [1], the AC50 was 0.82 µM [falling, full curve, poor fit].

Take `Cc1ccc(C)c(OCC(=O)Nc2ccccc2C(=O)NC2CC2)c1`: the cell number change is 0.283%. The AC50 under setting [1] was 6.51 µM [falling, single point].

For the compound `Cc1cccnc1NC(=O)c1ccc(S(=O)(=O)NCc2ccco2)cc1`, the cell number change worked out at 40.6%. The concentration at half-maximal activity (AC50) under setting [2] was 0.0291 µM [rising, full curve].

As to `C[C@H]1O[C@@H](n2cc(F)c(=O)[nH]c2=O)[C@H](O)[C@@H]1O`, the cell number change is -0.0238%. In addition, under setting [1], the AC50 was 0.164 µM [falling, full curve, poor fit].

On to `O=C(NC1CCCCC1)N(Cc1cc2cc3c(cc2[nH]c1=O)OCCO3)C1CCCCC1`, for which the AC50 by setting is: under setting [2], 2.91 µM [rising, partial curve]; under setting [1], 2.59 µM [rising, partial curve].

Take `CCOc1ccc(CN(C)C(=O)CCNC(=O)c2ccco2)cc1`: the cell number change was 21.3%. Moreover, the AC50 under setting [1] was 29.1 µM [rising, single point].

Consider `O=C(NNC(=O)c1ccccc1Cl)c1cccnc1`, for which the cell number change turned out to be 9.21%. Also, the AC50 under setting [1] is 6.31 µM [falling, single point].

Turning to `Cc1nc(-c2cccc(S(=O)(=O)N3CCCCCC3)c2)cs1`, the cell number change was determined as 59.9%. Besides, under setting [2], the AC50 was 29.1 µM [rising, single point].

As to `[O-][n+]1ccc(C2CC2)cc1`, the cell number change was -26.9%. Also, the AC50 under setting [1] is 3.66 µM [falling, full curve].

As to `COc1cccc(N(CC(=O)NCCSc2ccccn2)S(=O)(=O)c2ccccc2)c1`, the cell number change was -33.3%. For the same compound, the AC50 under setting [2] was 9.2 µM [falling, partial curve, poor fit].

Turning to `Cc1ccc(-n2cnn(-c3ccc([N+](=O)[O-])cc3[N+](=O)[O-])c2=O)cc1`, the cell number change was -20.2%. The AC50 under setting [1] was 29.1 µM [falling, single point].

For the compound `Cc1ccccc1NC(=O)c1c([N+](=O)[O-])c(C(C)(C)C)nn1C`, the cell number change was found to be 26%. Moreover, under setting [1], the AC50 was 1.84 µM [rising, full curve].

With `Cc1cc(C)n(S(=O)(=O)c2ccccc2)n1`, the cell number change turned out to be 42.4%. The AC50 under setting [2] was 14.6 µM [rising, single point]. The AC50 under setting [1] is 16.4 µM [rising, single point].

Regarding `Cc1cc(C)cc(NC(=O)CCn2cnc3cc(C)c(C)cc32)c1`, under setting [1], the AC50 is 0.461 µM [falling, single point].

As for `COc1ccccc1NS(=O)(=O)c1ccc(NC(=O)c2[nH]nc(OC)c2[N+](=O)[O-])cc1`, the cell number change is -13.9%.

`Cc1ccc(C(=O)O)cc1S(=O)(=O)NCC1CCCO1` (stereo not drawn): the cell number change is -47%. Further, the AC50 under setting [2] is 16.4 µM [falling, partial curve]. Under setting [1], the AC50 was 18.4 µM [falling, single point].

With `COc1ccc(S(=O)(=O)CCC(=O)N2CCN(c3ccc([N+](=O)[O-])cc3)CC2)cc1`, the cell number change was determined as 13.8%.

Turning to `CC1(C)CC(=O)C=C(Nc2ccc3c(c2)CCC3)C1`, the cell number change stood at 8.55%. Moreover, under setting [1], the AC50 is 0.259 µM [rising, full curve, poor fit].

`O=C(N/N=C/c1ccc2c(c1)OCO2)c1ccc(NS(=O)(=O)c2cccs2)cc1`: the cell number change was 82.1%. For the same compound, under setting [2], the AC50 was 11.6 µM [rising, partial curve]. In addition, the AC50 under setting [1] was 2.06 µM [rising, single point].

Regarding `COc1ccccc1OC(=O)CCc1nc2ccccc2s1`, the cell number change is -16.6%.

Turning to `CCC(=O)OCCn1c(Br)nc2c1c(=O)[nH]c(=O)n2C`, the cell number change is 11.3%. Besides, under setting [1], the AC50 is 0.82 µM [rising, single point].

With `CCOc1cc(NS(=O)(=O)c2ccccc2)c(OCC)cc1NC(=O)c1ccco1`, the cell number change amounted to 22.6%. In addition, under setting [2], the AC50 is 0.0651 µM [rising, partial curve, poor fit]. Also, the AC50 under setting [1] is 6.51 µM [rising, partial curve].

Consider `COc1ccc(CNC(=O)C2CCN(C(=O)N(C)C)CC2)c(OC)c1`, for which the cell number change was -1.17%. Under setting [1], the AC50 is 20.6 µM [rising, single point].

Take `Cc1cccc(CCNC(=O)CCc2nc(-c3ccccc3F)no2)c1`: the cell number change was found to be 85.1%. In addition, under setting [2], the AC50 is 16.4 µM [rising, partial curve]. The AC50 under setting [1] was 6.51 µM [rising, single point].

For the compound `CC(C)(O)C#Cc1ccc(C(=O)NCCC(=O)O)s1`, the cell number change was -33%. For the same compound, the AC50 under setting [2] is 0.58 µM [falling, full curve]. The AC50 under setting [1] is 3.26 µM [falling, full curve].

Regarding `Cc1ccccc1C(=O)Nc1ccc(N2CCCC2)cc1`, the cell number change was -45.8%. Besides, the AC50 under setting [2] is 23.1 µM [falling, single point]. Also, the AC50 under setting [1] was 23.1 µM [falling, partial curve].

For the compound `COc1cc(/C=C/C(=O)NC(=O)c2ccccc2O)ccc1OC(C)=O`, the cell number change was -29.1%. In addition, the AC50 under setting [1] was 5.8 µM [falling, single point].

As a reminder, the AC50 is the concentration at which the activity in the assay is half-maximal. Low readings indicate activity at low concentration, high ones activity only at high concentration.
